For the experiment, the target named is integrin α9β1 (human (endogenous in RBE)) (UniProt Q13797+P05556). Briefly: co-IP; endogenous proteins; RBE cell lysates incubated overnight at 4 °C with the antibodies on a rotator, Protein A/G Dynabeads, normal IgG control, SDS-PAGE and immunoblotting. In general terms: A western blot detects proteins with antibodies after separation by electrophoresis.

Sequences of proteins named here, by UniProt entry; tags and fusion partners are left off. A change or cut given only in a name is not applied to a line headed by its entry. Residues count along the entry.
UniProt Q13797: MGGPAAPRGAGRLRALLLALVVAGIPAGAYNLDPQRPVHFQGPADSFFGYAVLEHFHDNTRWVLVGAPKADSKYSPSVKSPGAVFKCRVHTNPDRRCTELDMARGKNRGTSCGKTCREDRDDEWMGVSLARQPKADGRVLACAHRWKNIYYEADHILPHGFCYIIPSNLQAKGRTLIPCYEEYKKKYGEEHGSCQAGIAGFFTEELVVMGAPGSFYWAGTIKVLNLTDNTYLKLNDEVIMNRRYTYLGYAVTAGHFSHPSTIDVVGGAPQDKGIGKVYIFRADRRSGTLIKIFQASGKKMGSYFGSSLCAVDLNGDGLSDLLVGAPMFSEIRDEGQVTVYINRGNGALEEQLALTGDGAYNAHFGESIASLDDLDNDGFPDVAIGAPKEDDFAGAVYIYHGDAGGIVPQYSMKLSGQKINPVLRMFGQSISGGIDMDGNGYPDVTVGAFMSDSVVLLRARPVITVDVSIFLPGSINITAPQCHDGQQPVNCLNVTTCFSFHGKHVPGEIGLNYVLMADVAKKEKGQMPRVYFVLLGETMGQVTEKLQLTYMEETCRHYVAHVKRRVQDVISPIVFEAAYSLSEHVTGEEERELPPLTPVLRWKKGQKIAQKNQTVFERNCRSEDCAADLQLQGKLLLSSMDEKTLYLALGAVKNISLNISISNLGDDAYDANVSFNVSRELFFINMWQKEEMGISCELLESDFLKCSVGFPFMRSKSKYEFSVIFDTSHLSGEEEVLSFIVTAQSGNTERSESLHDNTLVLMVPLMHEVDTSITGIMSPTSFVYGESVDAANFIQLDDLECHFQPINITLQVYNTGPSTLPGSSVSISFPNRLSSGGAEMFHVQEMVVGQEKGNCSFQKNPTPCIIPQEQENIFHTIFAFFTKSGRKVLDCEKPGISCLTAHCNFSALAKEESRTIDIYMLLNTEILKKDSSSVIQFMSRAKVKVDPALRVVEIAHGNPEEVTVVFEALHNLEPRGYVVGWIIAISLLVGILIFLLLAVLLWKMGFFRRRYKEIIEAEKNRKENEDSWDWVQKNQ
UniProt P05556: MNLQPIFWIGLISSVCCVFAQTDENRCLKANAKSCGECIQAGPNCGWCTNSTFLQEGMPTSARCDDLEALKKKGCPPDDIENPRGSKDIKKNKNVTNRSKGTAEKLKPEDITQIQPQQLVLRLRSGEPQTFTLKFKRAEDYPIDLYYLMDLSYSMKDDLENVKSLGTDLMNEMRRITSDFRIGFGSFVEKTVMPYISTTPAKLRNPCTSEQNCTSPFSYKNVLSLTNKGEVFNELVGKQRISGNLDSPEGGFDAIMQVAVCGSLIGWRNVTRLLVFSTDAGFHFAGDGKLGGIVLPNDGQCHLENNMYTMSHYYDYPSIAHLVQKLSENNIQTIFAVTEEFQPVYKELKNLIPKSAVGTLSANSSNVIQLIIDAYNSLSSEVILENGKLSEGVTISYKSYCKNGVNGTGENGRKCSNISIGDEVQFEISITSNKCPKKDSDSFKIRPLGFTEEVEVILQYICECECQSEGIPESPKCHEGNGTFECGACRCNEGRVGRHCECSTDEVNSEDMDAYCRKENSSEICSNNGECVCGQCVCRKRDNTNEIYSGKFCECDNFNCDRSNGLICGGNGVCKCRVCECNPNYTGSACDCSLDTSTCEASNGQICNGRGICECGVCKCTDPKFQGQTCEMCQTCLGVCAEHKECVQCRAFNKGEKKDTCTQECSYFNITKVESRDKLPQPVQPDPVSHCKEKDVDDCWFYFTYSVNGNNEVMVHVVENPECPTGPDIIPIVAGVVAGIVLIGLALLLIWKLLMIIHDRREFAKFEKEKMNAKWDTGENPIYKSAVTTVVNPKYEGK
UniProt Q4LDE5, residues 18-3571: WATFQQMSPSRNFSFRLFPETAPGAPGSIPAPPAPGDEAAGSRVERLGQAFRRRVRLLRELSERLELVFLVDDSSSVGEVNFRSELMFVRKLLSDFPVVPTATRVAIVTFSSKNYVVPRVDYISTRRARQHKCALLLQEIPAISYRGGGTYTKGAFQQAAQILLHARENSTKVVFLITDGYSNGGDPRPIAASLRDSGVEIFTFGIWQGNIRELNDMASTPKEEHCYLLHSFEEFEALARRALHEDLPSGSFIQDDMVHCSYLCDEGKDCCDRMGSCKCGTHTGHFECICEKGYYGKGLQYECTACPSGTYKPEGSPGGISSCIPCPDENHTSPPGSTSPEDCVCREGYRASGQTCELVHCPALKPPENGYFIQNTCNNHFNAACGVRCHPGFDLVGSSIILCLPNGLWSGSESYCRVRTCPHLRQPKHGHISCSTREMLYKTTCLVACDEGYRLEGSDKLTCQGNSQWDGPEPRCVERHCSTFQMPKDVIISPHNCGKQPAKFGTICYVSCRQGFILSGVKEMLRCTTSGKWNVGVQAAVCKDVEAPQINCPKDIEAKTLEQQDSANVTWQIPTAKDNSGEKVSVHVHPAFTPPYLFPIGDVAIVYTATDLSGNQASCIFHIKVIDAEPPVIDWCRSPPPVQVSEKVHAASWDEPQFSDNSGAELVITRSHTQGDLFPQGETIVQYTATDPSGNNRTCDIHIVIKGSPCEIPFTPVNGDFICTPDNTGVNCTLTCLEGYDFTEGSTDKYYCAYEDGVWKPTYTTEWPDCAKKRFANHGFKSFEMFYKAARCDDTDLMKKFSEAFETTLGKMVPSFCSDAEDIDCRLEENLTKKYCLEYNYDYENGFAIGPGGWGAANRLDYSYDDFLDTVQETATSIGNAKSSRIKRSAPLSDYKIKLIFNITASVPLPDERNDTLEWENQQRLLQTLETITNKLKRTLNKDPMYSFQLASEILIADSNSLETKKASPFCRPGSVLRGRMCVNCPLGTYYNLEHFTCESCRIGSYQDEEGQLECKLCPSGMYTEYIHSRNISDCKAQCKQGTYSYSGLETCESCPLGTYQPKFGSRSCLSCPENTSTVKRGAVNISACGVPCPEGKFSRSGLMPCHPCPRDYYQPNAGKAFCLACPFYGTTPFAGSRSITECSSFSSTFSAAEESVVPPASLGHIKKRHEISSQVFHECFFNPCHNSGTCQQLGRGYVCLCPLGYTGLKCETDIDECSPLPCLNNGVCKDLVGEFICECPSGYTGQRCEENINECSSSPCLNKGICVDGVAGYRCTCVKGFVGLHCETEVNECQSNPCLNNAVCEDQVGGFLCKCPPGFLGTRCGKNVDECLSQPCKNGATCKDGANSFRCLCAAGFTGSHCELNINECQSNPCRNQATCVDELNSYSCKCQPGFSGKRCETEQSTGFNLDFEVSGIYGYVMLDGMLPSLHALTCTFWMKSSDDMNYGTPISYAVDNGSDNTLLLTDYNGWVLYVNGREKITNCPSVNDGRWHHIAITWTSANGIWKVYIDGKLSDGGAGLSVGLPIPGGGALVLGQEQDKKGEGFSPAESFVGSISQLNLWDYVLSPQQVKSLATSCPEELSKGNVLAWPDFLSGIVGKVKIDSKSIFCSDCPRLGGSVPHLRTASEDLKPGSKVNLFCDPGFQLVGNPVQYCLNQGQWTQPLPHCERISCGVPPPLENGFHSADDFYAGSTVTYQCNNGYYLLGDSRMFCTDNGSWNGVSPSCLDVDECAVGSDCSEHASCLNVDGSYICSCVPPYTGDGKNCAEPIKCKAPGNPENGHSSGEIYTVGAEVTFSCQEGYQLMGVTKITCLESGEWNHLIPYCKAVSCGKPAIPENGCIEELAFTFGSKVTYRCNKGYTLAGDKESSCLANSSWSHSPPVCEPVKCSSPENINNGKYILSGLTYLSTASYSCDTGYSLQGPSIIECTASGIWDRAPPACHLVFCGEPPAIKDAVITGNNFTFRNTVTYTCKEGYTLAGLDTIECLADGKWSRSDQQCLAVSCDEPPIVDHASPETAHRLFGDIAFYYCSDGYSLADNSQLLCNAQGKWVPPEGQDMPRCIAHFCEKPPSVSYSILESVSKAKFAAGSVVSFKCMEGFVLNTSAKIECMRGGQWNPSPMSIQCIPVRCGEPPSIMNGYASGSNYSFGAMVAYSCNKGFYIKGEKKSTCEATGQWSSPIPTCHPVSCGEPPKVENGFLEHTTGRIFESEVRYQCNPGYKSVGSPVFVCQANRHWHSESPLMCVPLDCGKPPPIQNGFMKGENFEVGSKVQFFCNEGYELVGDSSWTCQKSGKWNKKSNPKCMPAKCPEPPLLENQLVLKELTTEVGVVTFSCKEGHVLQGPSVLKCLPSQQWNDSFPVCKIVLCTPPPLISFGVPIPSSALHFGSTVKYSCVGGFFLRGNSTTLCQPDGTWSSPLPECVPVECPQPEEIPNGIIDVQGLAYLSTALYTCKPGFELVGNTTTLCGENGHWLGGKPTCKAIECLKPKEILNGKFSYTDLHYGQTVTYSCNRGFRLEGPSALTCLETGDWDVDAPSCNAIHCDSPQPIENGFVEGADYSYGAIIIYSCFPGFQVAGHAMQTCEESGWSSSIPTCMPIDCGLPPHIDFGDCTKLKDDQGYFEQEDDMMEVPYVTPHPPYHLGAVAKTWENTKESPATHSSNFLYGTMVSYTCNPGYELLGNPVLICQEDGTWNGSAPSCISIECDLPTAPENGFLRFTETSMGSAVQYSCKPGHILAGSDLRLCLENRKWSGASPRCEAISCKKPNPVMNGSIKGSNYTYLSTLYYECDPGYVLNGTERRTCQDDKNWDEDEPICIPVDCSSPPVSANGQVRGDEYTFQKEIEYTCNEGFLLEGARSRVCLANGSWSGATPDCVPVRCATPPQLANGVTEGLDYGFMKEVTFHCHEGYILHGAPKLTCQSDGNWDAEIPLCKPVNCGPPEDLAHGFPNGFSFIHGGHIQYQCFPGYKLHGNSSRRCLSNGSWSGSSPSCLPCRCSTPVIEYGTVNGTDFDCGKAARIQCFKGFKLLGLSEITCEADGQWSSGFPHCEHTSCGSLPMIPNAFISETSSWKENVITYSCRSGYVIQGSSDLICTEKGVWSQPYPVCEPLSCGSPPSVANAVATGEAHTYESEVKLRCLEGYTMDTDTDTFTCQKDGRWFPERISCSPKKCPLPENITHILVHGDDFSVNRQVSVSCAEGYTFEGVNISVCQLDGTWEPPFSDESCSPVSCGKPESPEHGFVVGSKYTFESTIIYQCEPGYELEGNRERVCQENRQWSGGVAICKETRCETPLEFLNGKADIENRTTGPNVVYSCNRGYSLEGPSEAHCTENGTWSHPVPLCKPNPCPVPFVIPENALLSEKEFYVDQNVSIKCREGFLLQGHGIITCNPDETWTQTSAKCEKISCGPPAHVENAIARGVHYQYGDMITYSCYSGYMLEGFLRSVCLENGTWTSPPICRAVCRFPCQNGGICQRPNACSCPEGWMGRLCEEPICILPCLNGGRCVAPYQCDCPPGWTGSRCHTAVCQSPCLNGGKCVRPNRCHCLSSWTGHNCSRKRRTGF

These are yes or no findings as the source states them, for the method shown. Binding seen in cells or lysates may run through a third protein. Some results given as binding are weak or reduced against the parent protein; the word gives no strength.

For “SVEP1 (sushi, Von Willebrand factor type A, EGF, and pentaxin) (from UniProt Q4LDE5 18-3571)”, the binding entry is “binds”.
